# Reference: paper doi:10.1101/2022.02.10.479907
# These are yes or no findings as the source states them, for the method shown.
# Tests used:
# [1] = target: SaroL-1 from Salpingoeca rosetta (Salpingoeca rosetta) (UniProt F2UID9); assay: SEC-MALS
# [2] = target: SaroL-1 from Salpingoeca rosetta (Salpingoeca rosetta) (UniProt F2UID9); assay: crystal structure
binder,measurement,setting,value
"SaroL-1 from Salpingoeca rosetta (protein, UniProt F2UID9 1-329) MSSTFEPATDSPLPVPGVQYFLQHVQSGKYVHPHGGSDMPGNDTALVLHHGFDEKRDALRWVFVNDAENKHQLKHYSSGKFVHPKGGKVGKEATLVVHSSPGRPETMIEMVQEDGRTYLRHTDSDYYVHPHGGSPNPGDNTRLVYYSGYRPSLAFLAIPAETLFVDRIEIHQAQALESINTITSLSDEHRNDTDQPVQTSISVALEESLQDSAQLSFERCFGLKVGSEFEVGLPLVGKTKVSVQFSGSWKSSTIKGEVRTSAVKVQINEHVTIPPGKCVQIRIDTRRCTKTAPATMYLRTASGIEVQRETTVTSTYHYDQEVHVVPVTN",binding,[1],no binding
same,binding,[2],no binding
